For the assay, the system named is P388 leukemia ip, CD2F1 mice, survival T/C. Nature of the assay: NCI In Vivo Anticancer Drug Screen. Data for tumor model P388 Leukemia (intraperitoneal) in CD2F1 (CDF1) mice. The conditions noted are these: T/C endpoint: median survival time, higher T/C = longer survival.
[1] abbreviates: dose: 50.0 mg/kg/injection, schedule: Q01DX005 (ip), vehicle: saline.
Setting [2] is: dose: 200.0 mg/kg/injection, schedule: Q01DX005 (ip), vehicle: saline.
[3] abbreviates: dose: 400.0 mg/kg/injection, schedule: Q01DX001 (ip), vehicle: Klucel (hydroxypropylcellulose) (HPC).
[4] abbreviates: dose: 200.0 mg/kg/injection, schedule: Q04DX003 (ip), vehicle: Klucel (hydroxypropylcellulose) (HPC).
The mark [5] stands for this setting: dose: 240.0 mg/kg/injection, schedule: Q01DX005 (ip), vehicle: saline with Tween-80.
Setting [6] is: dose: 50.0 mg/kg/injection, schedule: Q01DX005 (ip), vehicle: saline with Tween-80.

The list is a part of this screen's results and no random one: it is rich in T/C values a quarter to a half above the control, in often repeated tests (any T/C) and in doses without a T/C. Other doses and runs of a compound stand elsewhere. T/C: endpoint of the treated group in % of that of the vehicle group. Some doses have a count of surviving animals in place of a T/C: the source holds a T/C of zero for them, seemingly a mark for toxic or unscored doses. Some survivor counts are full or nearly so, which does not show that the dose was tolerated: survival well below the control is almost never listed, so the zero probably covers shortened survival too. Counts of survivors are from the toxicity check (mostly the fifth day) where no day follows; animals may have died later. Schedule codes are those of the source, read here as Q, the interval in days (D) or hours (H), X, the number of doses. Counts like (3×) say how often a value occurs here. Where survival is the endpoint, this PubChem deposit counts one and a half times the control or more as active, and values a quarter to a half above the control carry no call in these data; other NCI protocols may use other cut-offs. Some doses were run more than once; the values are given in rising order. Some T/C values are followed by the survivors on the day toxicity was checked, most often the fifth; where none is given, no animal had died by that day.

Data on 23 molecules can be found in PubChem BioAssay AID330 (DTP/NCI, 2004).

On to `CCC1(c2cccc(C=O)c2)CCCCN(C)C1` (stereo unspecified), for which the survivor count by setting is: under setting [1], 4 of 5; (dose: 100.0 mg/kg/injection, schedule: Q01DX005 (ip), vehicle: saline) 0 of 5; under setting [2], 0 of 5.

For the molecule `CC1(C)N=C(N)N=C(N)N1c1cccc(C(=O)O)c1`, the survivor count (dose: 200.0 mg/kg/injection, schedule: Q01DX005 (ip), vehicle: Klucel (hydroxypropylcellulose) (HPC)) was 1 of 6.

Regarding `Cc1ccc(S(=O)(=O)NCC(CNS(=O)(=O)c2ccc(C)cc2)C(C)(C)C)cc1`, the survivor count under setting [3] is recorded as 6 of 6.

Regarding `CCCCNC(C)[C@]1(O)Cc2c(O)c3c(c(O)c2[C@@H](OC2CC(N)C(O)C(C)O2)C1)C(=O)c1c(OC)cccc1C3=O` (stereo partly specified), the T/C reads like this: (dose: 0.15 mg/kg/injection, schedule: Q01DX009 (ip), vehicle: water) 127 % of control; (dose: 0.31 mg/kg/injection, schedule: Q01DX009 (ip), vehicle: water) 144 % of control; (dose: 0.62 mg/kg/injection, schedule: Q01DX009 (ip), vehicle: water) 135 and 148 % of control; (dose: 1.25 mg/kg/injection, schedule: Q01DX009 (ip), vehicle: water) 142 % of control. Also, the survivor count (dose: 10.0 mg/kg/injection, schedule: Q01DX009 (ip), vehicle: water) is on record as 6 of 6 and the survivor count (dose: 20.0 mg/kg/injection, schedule: Q01DX009 (ip), vehicle: water) is listed as 2 of 6.

Consider `CSC(=C[N+](=O)[O-])SC`, for which, for the setting “dose: 50.0 mg/kg/injection, schedule: Q01DX009 (ip), vehicle: water”, the survivor count is on record as 3 of 6.

In the case of `O=[N+]([O-])c1cccc(N/N=C\c2cccc3c(/C=N/Nc4cccc([N+](=O)[O-])c4)c(Cl)n(-c4ccccc4)c23)c1`, the survivor count runs as follows: (dose: 200.0 mg/kg/injection, schedule: Q01DX001 (ip), vehicle: Klucel (hydroxypropylcellulose) (HPC)) 6 of 6; under setting [3], 6 of 6.

As for `COc1cc2c(c(OC)c1OC)-c1[nH]ncc1CC2`, the survivor count under setting [4] is 6 of 6.

Take `CN=C(NN(C)C)c1ccc(NC(=O)c2ccc(C(=O)Nc3ccc(C(=NC)NN(C)C)cc3)cc2)cc1`: the T/C reads like this: (dose: 6.6 mg/kg/injection, schedule: Q01DX009 (ip), vehicle: saline with Tween-80) 127 and 130 % of control; (dose: 9.9 mg/kg/injection, schedule: Q01DX009 (ip), vehicle: saline with Tween-80) 131 % of control; (dose: 13.2 mg/kg/injection, schedule: Q01DX009 (ip), vehicle: saline with Tween-80) 130 % of control; (dose: 20.0 mg/kg/injection, schedule: Q04DX003 (ip), vehicle: saline) 129 % of control. In addition, the survivor count (dose: 20.0 mg/kg/injection, schedule: Q04DX003 (ip), vehicle: saline with Tween-80) is 5 of 6; the survivor count (dose: 30.0 mg/kg/injection, schedule: Q04DX003 (ip), vehicle: saline with Tween-80) is listed as 1 of 6; the survivor count (dose: 40.0 mg/kg/injection, schedule: Q04DX003 (ip), vehicle: saline) is given as 0 of 6; the survivor count (dose: 80.0 mg/kg/injection, schedule: Q04DX003 (ip), vehicle: saline) was 0 of 6.

As for `Cc1ccc(S(=O)(=O)F)cc1C(=O)O`, the survivor count under setting [5] was 3 of 6.

Consider `CNC(=S)c1cccc(-c2ccccn2)n1`, for which the survivor count by setting is: (dose: 100.0 mg/kg/injection, schedule: Q04DX003 (ip), vehicle: Klucel (hydroxypropylcellulose) (HPC)) 6 of 6; under setting [4], 3 of 6.

`COc1ccc(C(=O)N/N=C(\C)[C@]2(O)Cc3c(O)c4c(c(O)c3[C@@H](OC3CC(N)C(O)C(C)O3)C2)C(=O)c2c(OC)cccc2C4=O)cc1` (stereo partly specified): the T/C was 129 % of control (dose: 0.25 mg/kg/injection, schedule: Q01DX009 (ip), vehicle: water) and 136 % of control (dose: 0.5 mg/kg/injection, schedule: Q01DX009 (ip), vehicle: water). The survivor count (dose: 16.0 mg/kg/injection, schedule: Q01DX009 (ip), vehicle: water) is 6 of 6 (2×); the survivor count (dose: 96.0 mg/kg/injection, schedule: Q04DX003 (ip), vehicle: water) was 1 of 3; the survivor count (dose: 192.0 mg/kg/injection, schedule: Q04DX003 (ip), vehicle: water) was 0 of 3.

Regarding `c1cc(C2N3CCCN2CC3)ccn1` (stereo unspecified), the survivor count (dose: 6.25 mg/kg/injection, schedule: Q01DX009 (ip), vehicle: saline) is 6 of 6.

As for `CNC(=O)O/N=C/C(C)(C)SC`, the survivor count reads like this: (dose: 0.93 mg/kg/injection, schedule: Q01DX005 (ip), vehicle: Klucel (hydroxypropylcellulose) (HPC)) 0 of 6; (dose: 1.87 mg/kg/injection, schedule: Q01DX005 (ip), vehicle: Klucel (hydroxypropylcellulose) (HPC)) 0 of 6; (dose: 3.75 mg/kg/injection, schedule: Q01DX005 (ip), vehicle: Klucel (hydroxypropylcellulose) (HPC)) 0 of 6; (dose: 7.5 mg/kg/injection, schedule: Q01DX005 (ip), vehicle: Klucel (hydroxypropylcellulose) (HPC)) 0 of 6; (dose: 15.0 mg/kg/injection, schedule: Q01DX005 (ip), vehicle: Klucel (hydroxypropylcellulose) (HPC)) 0 of 6; (dose: 30.0 mg/kg/injection, schedule: Q01DX005 (ip), vehicle: Klucel (hydroxypropylcellulose) (HPC)) 0 of 6. Also, the survivor count by setting is: (dose: 60.0 mg/kg/injection, schedule: Q01DX005 (ip), vehicle: Klucel (hydroxypropylcellulose) (HPC)) 0 of 6; (dose: 120.0 mg/kg/injection, schedule: Q01DX005 (ip), vehicle: Klucel (hydroxypropylcellulose) (HPC)) 0 of 6; (dose: 240.0 mg/kg/injection, schedule: Q01DX005 (ip), vehicle: Klucel (hydroxypropylcellulose) (HPC)) 0 of 6.

For the molecule `Cn1nnc2c(C(N)=O)ncn2c1=O`, the T/C was 145 % of control under setting [6]; 130 [5 of 6 alive] and 146 % of control under setting [1]. Further, the survivor count is, setting by setting: (dose: 400.0 mg/kg/injection, schedule: Q01DX005 (ip), vehicle: saline with Tween-80) 3 of 6; (dose: 400.0 mg/kg/injection, schedule: Q01DX005 (ip), vehicle: saline) 2 of 10.

On to `O=C(O)/C=C/C(=O)N1Cc2cc3ccccc3nc2C1`, for which the survivor count (dose: 4.0 mg/kg/injection, schedule: Q01DX009 (ip), vehicle: saline with Tween-80) is listed as 6 of 6. For the same molecule, the T/C (dose: 6.25 mg/kg/injection, schedule: Q01DX009 (ip), vehicle: saline with Tween-80) is 131 % of control.

`C[CH2][Pb]([CH2]C)([CH2]C)[O]C(=O)COc1ccccc1`: under “dose: 12.0 mg/kg/injection, schedule: Q04DX003 (ip), vehicle: Klucel (hydroxypropylcellulose) (HPC)”, the T/C is 126 % of control. Further, the survivor count (dose: 24.0 mg/kg/injection, schedule: Q04DX003 (ip), vehicle: Klucel (hydroxypropylcellulose) (HPC)) was 3 of 6.

With `NCC12CC3CC(CC(C3)C1)C2`, the survivor count runs as follows: (dose: 100.0 mg/kg/injection, schedule: Q01DX009 (ip), vehicle: saline with Tween-80) 3 of 6; (dose: 200.0 mg/kg/injection, schedule: Q01DX009 (ip), vehicle: saline with Tween-80) 0 of 6.

With `N#Cc1cccn1OCN1C(=O)c2ccccc2C1=O`, under setting [4], the survivor count is on record as 5 of 6.

With `O=C1CSCc2nc3ccccc3n21`, the survivor count (dose: 50.0 mg/kg/injection, schedule: Q01DX009 (ip), vehicle: saline) is recorded as 6 of 6.

Turning to `Cc1c(C(N)=O)no[n+]1[O-]`, the survivor count (dose: 240.0 mg/kg/injection, schedule: Q01DX005 (ip), vehicle: saline) is 0 of 6.

`CCN(CC)CCOCCOC1CC2CCC1(C)C2(C)C` (stereo unspecified): the survivor count under setting [2] is on record as 0 of 6.

As for `C/C(=N\NC(=S)N(C)C1CCCCC1)c1ccc2ccccc2n1`, the T/C by setting is: (dose: 25.0 mg/kg/injection, schedule: Q01DX005 (ip), vehicle: saline with Tween-80) 131 % of control; under setting [6], 147 % of control. The survivor count under setting [6] was 6 of 6; the survivor count (dose: 100.0 mg/kg/injection, schedule: Q01DX005 (ip), vehicle: saline with Tween-80) is reported as 2 of 6; the survivor count (dose: 200.0 mg/kg/injection, schedule: Q01DX005 (ip), vehicle: saline with Tween-80) is given as 0 of 6.

For the molecule `CCOC(=O)C1=C(NC23CC4CC(CC(C4)C2)C3)OCC1=O`, the survivor count under setting [5] is 3 of 6.
